This note sets out measurements from PubChem BioAssay AID1347423 (Functional Genomics Laboratory (NCATS/FGL), 2020).

Out of some 52,000 sequences screened, about 210 (0.4%) were called active.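 Rule for the calls: active = gene whose silencing raises cell survival under the drug, median off-target-corrected z-score across its silencing RNAs 2 or more; inactive = the rest.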 The list shows a part of the results.

The assay is described as follows: Resistance to Poly (ADP-Ribose) Polymerase inhibitor: Gene Identification via Genome-wide siRNA Screen. The note with it: mouse BRCA2 R2336H ES cells, olaparib, CellTiter-Glo viability; active compounds read high. Summed up: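 Genome-wide siRNA screen (3 siRNAs/gene, 20 nM) in mouse ES cells carrying hypomorphic BRCA2 R2336H; olaparib 500 nM added 48 h post-transfection, CellTiter-Glo viability 72 h later. Normalized to plate-median negative control; MAD z-scores, gene median, seed-adjusted.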
Background: In ATP-based viability assays light output follows the ATP content of the culture.
On to CGUACUGGGCCUAUGUUGATT against Nrarp, for which the z-score is inactive: 1.02.
The result for GCCAAAGUCUUGCUAUGUGTT against Ube1l reads inactive: -1.56.
The result for CCUUCUGGCCCAGACGAUUTT against Pxmp2 reads inactive: -0.173; that for GCUAUUAUUGCAAUGUCAGTT against Trim38, inactive: -0.00296.
For the sequence GCUCAGAUGACAAUUUGCCTT against Gbx2, the z-score was inactive: -0.738.
The figure for GGCCUGAAGGGCAUUUACATT against Slc25a11 is inactive: -0.0765; for “GCAGGAGGUUCGUGAUAUUTT against 1810010O14Rik” it is inactive: -0.98.
The figure for “GGAUACACACAGAGAAUAUTT against 2810441C07Rik” is inactive: 0.02; for GAGCUUUGUGCUGAACCUGTT against Lgals1 it is inactive: 0.258; for GCUUUUUUAUGCAUUCCAATT against Rock1 it is inactive: -1.81.
Regarding GGUGUUGUUCACGAGGACCTT against Nol5a, the z-score is inactive: -0.444.
With GCUUAGUGGUGUCAUCUCCTT against Stx1a, the z-score is inactive: 0.946.
The figure for GCACCUAACAAGUACUAAATT against Prei3 is inactive: -1.52; for GCCUUCAGGAAAAUCACUATT against Olfr849 it is inactive: -0.487.
As to GGACAAGGUUGUGUCUGUGTT against Olfr1508, the z-score is inactive: 0.577.
For the sequence “GGAGUGAUGUCUUCACUGATT against 4631426E05Rik”, the z-score is inactive: -0.482.
The result for “CCAAUUUUGUCAUAGGACATT against 1100001H23Rik” reads inactive: 0.138; that for “GGGACCUACAUUACAAUUUTT against D11Ertd530e”, inactive: -0.62.
The result for CGAAACUUACCAGGAGUCGTT against Ttyh2 reads inactive: 1.92; that for “GGAUCCAUUAGUCAAGAAGTT against 1110020M19Rik”, inactive: 1.99; that for GGGAUUCCUUCAGCUUACCTT against Gng12, inactive: -0.224.
The figure for “CGGCAGCAAUCAUCAGUAGTT against 2700017M01Rik” is inactive: 0.362; for GGAGAAGGAGGUGAUAAUGTT against Sart1 it is inactive: 0.088.
Regarding “GCAAGAAUCAUCCGGUUACTT against 1810054D07Rik”, the z-score is inactive: -1.29.
Regarding “GGAUUAGGAUCAGCAGGAUTT against 2610203E10Rik”, the z-score was inactive: -1.62.
The figure for CGUCAAUGCUCACUUAAUUTT against Zfp612 is inactive: -1.13.
Consider UUUCGAUCCUUUGAUUGAGTT against Olfr482, for which the z-score is inactive: 1.03.
With GCUAAAACGAACCACUAUGTT against Abhd9, the z-score was inactive: -0.657.
As for GCUAGAAGUCAACAAAUACTT against Timp3, the z-score was inactive: -0.231.
The figure for GCUCAGUUCUCUGUCUUGUTT against Olfr107 is inactive: -0.627.
The figure for CCAUCAUUGGUGAAUCCCUTT against Gnai1 is inactive: -0.374; for GGAUCUUCGGACCUAUCUGTT against Bin1 it is inactive: -2.26; for GGAAGAAGGAACAUGAUCUTT against Mrpl52 it is inactive: 0.64.
Regarding GGGCUUUGAUGUCAUGAAGTT against Drg2, the z-score is inactive: -0.543.
With GGAGAUCAUUAAAAAGCUGTT against Pcaf, the z-score is inactive: 1.34.
As to CCAUCAAACUAAGACAAUCTT against Ckt2, the z-score is inactive: -0.306.
Regarding “CCCAUUUGCUCUGUGGAUCTT against 1300017K07Rik”, the z-score was inactive: -0.00892.
The result for GGCAGGACAUUCUCAAAUCTT against DXImx39e reads inactive: -0.171.
In the case of GGUAUCCACUGUGCCAACCTT against Ush2a, the z-score is inactive: -0.547.
The figure for CGCAGAAGCUAAUAAACAGTT against Psmb6 is inactive: -1.52; for GGUCCUGGACUUCAUGCUATT against Galnt6 it is inactive: -0.771.
As for GCCAAUACGGGUGAACAAGTT against Sf3b4, the z-score was inactive: -2.44.
Take GCCAGUUCUAGGGUAAUGGTT against Cnr2: the z-score was inactive: 2.84.
Turning to GGAUGGCUUUAAUAGUACUTT against Zfp106, the z-score was inactive: -0.301.
The result for CCAUGUUAGAACUGGGACUTT against AI851790 reads inactive: 0.0399; that for GGCAUUCUUUCUUCAAUACTT against Ibsp, inactive: 0.325; that for “GGGAAGAAAAAGAGCAUAUTT against 4930429A22Rik”, inactive: -0.173.
The result for GGCACUUGCUAUCAGCAAGTT against Cdc6 reads inactive: -0.536; that for CCUUUACUGUCACAAGCCGTT against Rgl2, inactive: 1.22.
As to “CGAUCAAAAAAAUCGUGUGTT against 4933411K20Rik”, the z-score is inactive: -0.688.
The figure for “GGUAUACACAUGAAAACCATT against 3110023B02Rik” is inactive: 2.35; for GCUAAUCACUGAAUGCUUCTT against Sca10 it is inactive: 1.24; for “GGACAACAGAAGACCUGUUTT against D10Bwg0940e” it is inactive: -1.97.
On to GGCUUCACUCUGAAGAAUUTT against Nab2, for which the z-score was inactive: -1.41.
For GGAGUCAGUCCUUAAGCCUTT against Trim30, the z-score was inactive: -0.154.
The result for GCACCUUUGAAUGUGAAGUTT against Ccl2 reads inactive: -0.122; that for CCCAUUAACCACUCCUAAATT against AI851790, inactive: 1.63; that for CCUGACAGUACCAAAAAAUTT against Pax4, inactive: 1.2.
The figure for “CCCGACUGAAUGCUCGGAUTT against 4931406I20Rik” is inactive: -0.572; for CCUUGGUUGUAUCCAUUUUTT against Cnot10 it is inactive: -1.04.
The figure for GUACUAGUGGUGACUGCAUTT against Olfr462 is inactive: -1.48; for GGUAACAUCCUAUAAAUAGTT against Arl5 it is inactive: 0.164.
In the case of GCACAAGCGUGGAACACAUTT against Dctn2, the z-score is inactive: -2.91.
As to GCAUUCUAUACUAUCGUCATT against Olfr314, the z-score is inactive: 1.5.
The figure for “GGUUGGAACAAAAUCUUUATT against 3830408P04Rik” is inactive: 1.06.
The result for GGAGCUACACACAUAGGAATT against Clrf reads inactive: 0.0183.
